From US6558922B1, “Methods and compositions for production of floral scent compounds” (Purdue Research Foundation, priority 1999, dated 2003)

Tests used:
[1] = tested on: Maryland True Pink Snapdragon flowers; test: Headspace collection and GC-MS of volatiles emitted from snapdragon flowers; parameters: species or system Antirrhinum majus; conditions: 5-day-old flowers; for Relative Amount: of total volatile production
[2] = tested on: snapdragon petal tissue (upper and lower lobes); conditions: Dudareva et al., 2000, cited from earlier work

SMILES | Volatile Production [1] | Relative Amount [1] | Concentration of free BA in petal tissue ([2]; 12 day after anthesis) | Concentration of free BA in petal tissue ([2]; second day of anthesis)
C=CC(=C)CCC=C(C)C [Myrcene] | 7.7 ± 2.1 μg/flower/24 hr | 8.1% |  | 
C=C/C(C)=C/CC=C(C)C [Trans-β-ocimene] | 26.0 ± 5.9 μg/flower/24 hr | 27.4% |  | 
O=C(O)c1ccccc1 [benzoic acid] |  |  | 0.2 mM | 2 mM

Read-outs that look alike come from different tables or passages of the source.
